Values quoted from earlier work as cited in patent US10786483B2, “Tumescent contravenom drug delivery” (HK Pharma, priority 2016, dated 2020).
For at least one compound, name, drawing or mass did not settle the structure.

System: lymphatic smooth muscle contraction
Settings: rats, applied topically; cited from earlier work

COC(=O)C1=C(C)NC(C)=C(C(=O)OC)C1c1ccccc1[N+](=O)[O-] [nifedipine]
lymph transit time: prolong
survival time after injection of venom: increase
